Experimental data: PMC9592637, “Functional characterization and transcriptional repression by Lacticaseibacillus paracasei DinJ-YafQ” (Applied Microbiology and Biotechnology, 2022)

What was measured:
[1] = system: DinJ + YafQ_pa4366; test: EMSA; details: KDapp, Hill n 2.4 ± 0.2, salmon sperm DNA competitor; EMSA: 2 nM DNA, 128 ng salmon sperm DNA in 10 uL, 50 mM Tris-HCl pH 7.5, 50 mM KCl, 5% glycerol, room temperature 10 min, 6% native PAGE in TBE; recombinant protein; protein details: N-terminal His6 (pET28b),none (pET11b); label: DY682 on both primers; probe letters rebuilt from the primers and the genome
[2] = system: DinJ R13A (Lacticaseibacillus paracasei 4366); test: EMSA; details: complete loss of binding up to 1.5 uM; EMSA: 2 nM DNA, 128 ng salmon sperm DNA in 10 uL, 50 mM Tris-HCl pH 7.5, 50 mM KCl, 5% glycerol, room temperature 10 min, 6% native PAGE in TBE; recombinant protein; residues 1-89; protein details: N-terminal His6 (pET28b); label: DY682 on both primers; probe letters rebuilt from the primers and the genome
[3] = system: DinJ + YafQ_pa4366; test: competition with a labelled probe; details: versus 200 nM RNAP, RNAP band disappears with increasing DinJ-YafQ, 5 mM Mg2+; EMSA: 2 nM DNA, 128 ng salmon sperm DNA in 10 uL, 50 mM Tris-HCl pH 7.5, 50 mM KCl, 5% glycerol, room temperature 10 min, 6% native PAGE in TBE; recombinant protein; protein details: N-terminal His6 (pET28b),none (pET11b); label: DY682 on both primers; probe letters rebuilt from the primers and the genome
[4] = system: RNA polymerase sigma-70 holoenzyme (Escherichia coli); test: EMSA; details: 200 nM RNAP, 5 mM Mg2+, 37 C, not displaced by DinJ-YafQ; EMSA: 2 nM DNA, 128 ng salmon sperm DNA in 10 uL, 50 mM Tris-HCl pH 7.5, 50 mM KCl, 5% glycerol, room temperature 10 min, 6% native PAGE in TBE; commercial protein; label: DY682 on both primers; probe letters rebuilt from the primers and the genome

| Sequence | Kd [1] | Kd [2] | binding result [3] | binding result [4] |
| --- | --- | --- | --- | --- |
| GATCAACACGAATATTCAAGCGAGTTTCTTTCTTTGTGGCTGCCATTGCTAACCACTCCTTCCTATCTAACAACCTAATTATATCACGAATTATCCCAATGTAAACACAGCGGGATAACATCATGTGAGATGAATTCAACCGGATTTCTGGCTTTTTCTTCGCACAAATGGAAGCGTAACTGCCATCAGACGTT (double strand) [194-bp dinJ-yafQ promoter fragment] | 44 nM | > 1500 nM | binds |  |
| CGTCCTCAAGCTGCTCTTGTGTTAATGGTTTCTTTTTTGTGCTCATACGTTAAATCTATCACCGCAAGGGATAAATATCTAACACCGTGCGTGTTGACTATTTTACCTCTGGCGGTGATAATGGTTGCATGTACTAAGGAGGTTGTATGGAACAACGCATAACCCTGAAAGATTATGCAATGCGCTTTGGGCAAAC (double strand) [196-bp lambda PR promoter fragment] |  |  |  | binds |

For some of these results: For at least one entry, the source does not settle the construct or the ends of the probe. For some of these results: At least one verdict rests on a figure or table, not on a statement of the authors.
